Test results as given in article PMC5847621.
These are yes or no findings as the source states them, for the method shown.

Sequences of proteins named here, by UniProt entry; tags and fusion partners are left off. A change or cut given only in a name is not applied to a line headed by its entry.
UniProt P0C2X0: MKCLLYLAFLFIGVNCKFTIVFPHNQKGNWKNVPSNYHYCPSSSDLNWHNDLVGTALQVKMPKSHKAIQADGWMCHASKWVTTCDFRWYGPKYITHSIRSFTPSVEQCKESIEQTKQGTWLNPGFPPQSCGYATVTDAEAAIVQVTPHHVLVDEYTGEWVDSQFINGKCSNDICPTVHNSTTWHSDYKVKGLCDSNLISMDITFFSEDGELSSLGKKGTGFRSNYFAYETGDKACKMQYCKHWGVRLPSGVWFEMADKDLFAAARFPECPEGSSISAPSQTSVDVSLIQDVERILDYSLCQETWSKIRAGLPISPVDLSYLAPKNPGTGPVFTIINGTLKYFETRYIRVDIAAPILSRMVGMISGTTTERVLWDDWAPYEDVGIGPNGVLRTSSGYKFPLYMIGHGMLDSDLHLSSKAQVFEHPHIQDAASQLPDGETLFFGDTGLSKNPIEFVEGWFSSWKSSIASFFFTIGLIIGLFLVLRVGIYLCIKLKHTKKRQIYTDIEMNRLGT

What was measured:
[1] = biological target: GST-CR3, LDL-R cysteine-rich domain CR3 in fusion with glutathione S-transferase (human) (UniProt P01130); experiment: pull-down; both purified
[2] = biological target: GST-CR2, LDL-R cysteine-rich domain CR2 in fusion with glutathione S-transferase (human) (UniProt P01130); experiment: pull-down; both purified

Row | Substance | binding [1] | binding [2]
1 | VSV Gth, soluble form of the ectodomain of VSV glycoprotein G (residues 1-422) (from UniProt P0C2X0 17-438) (domain or fragment) | no binding (condition: at pH 6) | no binding (condition: at pH 6)
2 | VSV glycoprotein G on VSV viral particles and at the surface of VSV-infected BSR cells (from UniProt P0C2X0 17-511) | no binding (condition: at pH 6) | no binding (condition: at pH 6)
